Reference: article PMC11402785, “Structural basis for activity switching in polymerases determining the fate of let-7 pre-miRNAs” (Nature Structural & Molecular Biology, 2024)
The exact form of at least one protein or probe is not confirmed. The comparison behind a weaker result is the experiment's own reference, which may not be listed here. For part of these data: At least one verdict was read from the data and is not stated in words by the source.

Key:
Assay in all cases: EMSA
[1] = system: TUT4 R283A/R286A + LIN28A; conditions: 0.5 mM UTP, Ca2+, Zn2+, much-reduced ternary assembly (interface 3), EMSA: 20 mM HEPES pH 7.8, 100 mM NaCl, 2 mM CaCl2, 50 uM ZnCl2, 5% glycerol, 5 mM DTT, RNase inhibitor, on ice 30 min, 0.1 uM RNA, 0.2 uM TUT, 0.3 uM LIN28A, recombinant protein, label: 3' CY dye
[2] = system: TUT4 interface 2/3 mutants + LIN28A; conditions: 0.5 mM UTP, Ca2+, Zn2+, much-reduced ternary assembly, EMSA: 20 mM HEPES pH 7.8, 100 mM NaCl, 2 mM CaCl2, 50 uM ZnCl2, 5% glycerol, 5 mM DTT, RNase inhibitor, on ice 30 min, 0.1 uM RNA, 0.2 uM TUT, 0.3 uM LIN28A, recombinant protein, label: 3' CY dye
[3] = system: TUT4 interface 1 mutant + LIN28A; conditions: 0.5 mM UTP, Ca2+, Zn2+, affected less than interface 2/3, higher-order assemblies seen, EMSA: 20 mM HEPES pH 7.8, 100 mM NaCl, 2 mM CaCl2, 50 uM ZnCl2, 5% glycerol, 5 mM DTT, RNase inhibitor, on ice 30 min, 0.1 uM RNA, 0.2 uM TUT, 0.3 uM LIN28A, recombinant protein, label: 3' CY dye

Measured: binding result

UGAGGUAGUAGUUUGUACAGUUUGAGGGUCUAUGAUACCACCCGGUACAGGAGAUAACUGUACAGGCCACUGCCUUGC [pre-let-7g_3'CY]
binds more weakly: all assays above
